# According to patent US20250388687A1:
# By UniProt entry, the sequences of proteins in these tests, tags left out. Residues count along the entry.
# UniProt P32927, residues 17-443: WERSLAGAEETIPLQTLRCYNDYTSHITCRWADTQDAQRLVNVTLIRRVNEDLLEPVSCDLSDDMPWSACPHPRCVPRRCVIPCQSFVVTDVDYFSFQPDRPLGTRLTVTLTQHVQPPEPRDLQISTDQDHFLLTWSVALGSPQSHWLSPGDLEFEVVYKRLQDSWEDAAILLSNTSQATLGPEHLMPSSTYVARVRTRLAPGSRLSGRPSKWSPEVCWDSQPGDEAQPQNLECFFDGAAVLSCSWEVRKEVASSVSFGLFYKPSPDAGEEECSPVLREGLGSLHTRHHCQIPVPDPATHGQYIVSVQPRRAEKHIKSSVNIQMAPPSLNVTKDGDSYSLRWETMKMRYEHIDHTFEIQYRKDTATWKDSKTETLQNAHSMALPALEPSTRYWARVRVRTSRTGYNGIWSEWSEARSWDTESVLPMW
# These are yes or no findings as the source states them, for the method shown. Some results given as binding are weak or reduced against the parent protein; the word gives no strength.
# Target: hCD131-Fc (IME021) (human) (UniProt P32927)
# Test: B cells sorted with labelled hEPOR-Fc and hCD131-Fc, then sequenced
row,Binder,binding
1,"EPOR/CD131 binder, HC SEQ ID NO 1617 / LC SEQ ID NO 1753 (antibody, V domains shown) VH: EVQLVESGGGLVKPGGSLRLSCAASGFTFSSYSMNWVRQAPGKGLEWVSSISSSSSYIYYADSVKGRFTISRDNAKNSLYLQMNSLRAEDTAVYYCARADSLTGGFFDYWGQGTLVTVSS VL: SYELTQPPSVSVSPGQTARITCSGDALPKKYAYWYQQKSGQAPVLVIYEDSKRPSGIPERFSGSSSGTMATLTISGAQVEDEADYYCYSTDSSGNHSWVFGGGTKLTVL",binds
2,"EPOR/CD131 binder, HC SEQ ID NO 1618 / LC SEQ ID NO 1754 (antibody, V domains shown) VH: QVQLVQSESELKKPGASVKVSCKASGYTFISYAMSWVRQAPGQGLEWMGWINTNTGNPTYAQGFTGRFVFSLDTSVSTAYLQISSLKAEDTAVYYCAERGWNYDYWGQGTLVTVSS VL: QAVVTQEPSLTVSPGGTVTLTCGSSTGAVTSGHYPYWFQQKPGQAPRTLIYDTSNKHSWTPARFSGSLLGGKAALTLSGAQPEDEAEYYCLLSYSGAWVFGGGTKLTVL",binds
3,"EPOR/CD131 binder, HC SEQ ID NO 1619 / LC SEQ ID NO 1755 (antibody, V domains shown) VH: EVQLVESGGGLIQPGGSLRLSCAASGFTVSSNYMSWVRQAPGKGLEWVSVIYSGGSTYYADSVKGRFTISRDNSKNTLYLQMNSLRAEDTAVYYCARDSTTVTLFDYWGQGTLVTVSS VL: QSALTQPASVSGSPGQSITISCTGTSSDVGGYNYVSWYQQHPGKAPKLMIYEVSNRPSGVSNRFSGSKSGNTASLTISGLQAEDEADYYCSSYTSSSTYVFGTGTKVTVL",binds
4,"EPOR/CD131 binder, HC SEQ ID NO 1620 / LC SEQ ID NO 1756 (antibody, V domains shown) VH: EVQLVESGGGLVKPGGSLRLSCAASGFTFSSYSMNWVRQAPGKGLEWVSSISSSSSYIYYADSVKGRFTISRDNAKNSLYLQMNSLRAEDTAVYYCARGIAVAGPHAFDIWGQGTMVTVSS VL: QSALTQPPSASGSPGQSVTISCTGTSSDVGGYNYVSWYQQHPGKAPKLMIYEVSKRPSGVPDRFSGSKSGNTASLTVSGLQAEDEADYYCSSYAGSNNFVVFGGGTKLTVL",binds
5,"EPOR/CD131 binder, HC SEQ ID NO 1621 / LC SEQ ID NO 1757 (antibody, V domains shown) VH: EVQLVESGGGLIQPGGSLRLSCAASGFTVSSNYMSWVRQAPGKGLEWVSVIYSGGSTYYADSVKGRFTISRDNSKNTLYLQMNSLRAEDTAVYYCARGYSGSYAYWGQGTLVTVSS VL: QSVLTQPPSVSGAPGQRVTISCTGSSSNIGAGYDVHWYQQLPGTAPKLLIYGNSNRPSGVPDRFSGSKSGTSASLAITGLQAEDEADYYCQSYDSSLSGYVFGTGTKVTVL",binds
6,"EPOR/CD131 binder, HC SEQ ID NO 1622 / LC SEQ ID NO 1758 (antibody, V domains shown) VH: QVQLQQSGPGLVKPSQTLSLTCAISGDSVSSNSAAWNWIRQSPSRGLEWLGRTYYRSKWYNDYAGSVKSRIIINPDTSKNQLSLQLKSVTPEDTAVYYCARKWELRDAFDIWGQGTMVTVSS VL: QSALTQPASVSGSPGQSITISCTGTSSDVGGYNYVSWYQQHPGKAPKLMIYDVSKRPSGVSNRFSGSKSGNTASLTISGLQAEDEADYYCCSYAGRSTLGIDWVFGGGTKLTVL",binds
7,"EPOR/CD131 binder, HC SEQ ID NO 1623 / LC SEQ ID NO 1759 (antibody, V domains shown) VH: EVQLVQSGAVVKKPGESLKISCKGSGYSFSSYWIGWVRQMPGKGLEWMGIIYPGDSDTRYSPSFQGQVTISADKSISTAYLQWSSLQASDTAMYFCAKRRMTGSHSWFDPWGQGTLVTVSS VL: SYVLTQPPSVSVAPGKTARITCEGDNIGSESVHWYQQKPGQAPVLVIYFDSDRPSGIPERFSGSNSGITATLTISRVEAGDEADFYCQVWDNGSDHVVFGGGTKLTVL",binds
8,"EPOR/CD131 binder, HC SEQ ID NO 1624 / LC SEQ ID NO 1760 (antibody, V domains shown) VH: EVQLVESGGGLVQPGGSLRLSCAASGFTFSSYWMHWVRQAPGKGLVWVSRINSDGSSTSYADSVKGRFTISRDNAKNTLYLQMNSLRAEDTAVYYCARIDYWGQGTLVTVSS VL: QSALTQPASVSGSPGQSITISCTGTSSDVGGYNYVSWYQQHPGKAPKLMIYEVSNRPSGVSNRFSGSKSGNTASLTISGLQAEDEADYYCSSYTSSSTWVFGGGTKLTVL",binds
9,"EPOR/CD131 binder, HC SEQ ID NO 1630 / LC SEQ ID NO 1766 (antibody, V domains shown) VH: QVQLVQSGAEVKKPGASVKVSCKASGYTFTSYGISWVRQAPGQGLEWMGWISAYNGNTNYAQKLQGRVTMTTDTSTSTAYMELRSLRSDDTAVYYCARGWYFDYWGQGTLVTVSS VL: QSALTQPASVSGSPGQSITISCTGTSSDVGGYNYVSWYQQHPGKAPKLMIYEVSNRPSGVSNRFSGSKSGNTASLTISGLQAEDEADYYCSSYTSSSTLVFGGGTKLTVL",binds
10,"EPOR/CD131 binder, HC SEQ ID NO 1631 / LC SEQ ID NO 1767 (antibody, V domains shown) VH: EVQLVESGGGLVQPGGSLRLSCAASGFTFSTYAMNWVRQAPGKGLEWVSAISGGGGSTYYADSVKGRFTISRDNSKNTLYLQMNSLRAEDTAVYYCAKRVFFDYWGQGTLVTVSS VL: QSALTQPASVSGSPGQSITISCTGTSSDVGGYNYVSWYQQHPGKAPKLMIYEVSNRPSGVSNRFSGSKSGNTASLTISGLQAEDEADYSCSSYTISSTWVFGGGTKLTVL",binds
11,"EPOR/CD131 binder, HC SEQ ID NO 1633 / LC SEQ ID NO 1769 (antibody, V domains shown) VH: VVQLVESGGGLVQPGGSLRLSCAASGFTFSRYWMSWVRQAPGKGLEWVANINQDGSEEYYVDSVKGRFTISRDNAKSSLSLQMNSLRAEDTALYYCATDLNWNGYWGQGTLVTVSS VL: QSALTQPASVSGSPGQSITISCTGTSSDVGGYDYVSWYQQHPGKAPKFMISGVSNRPSGVSNRFSGSKSGNTASLTISGLQAEDEADYYCSSYTRSRTWVFGGGTKLTVL",binds
12,"EPOR/CD131 binder, HC SEQ ID NO 1634 / LC SEQ ID NO 1770 (antibody, V domains shown) VH: EVQLVESGGGLVQPGGSLRLSCAASGFTFSRCDMYWVRQATGKGLEWVSAIGAAGDTYYPGSVKGRFTISRENAKNSLYLQMNSLRAGDTAVYYCATGYNWNPDYWGQGTLVTVSS VL: QAVLTQPASLSASPGASASLTCTLRSGINVGTYRIYWYQQKPGSPPQYLLRYKSDSDKQQGSGVPSRFSGSKDASANAGILLISGLQSEDEADYYCMIWHSSASVFGGGTKLTVL",binds
13,"EPOR/CD131 binder, HC SEQ ID NO 1635 / LC SEQ ID NO 1771 (antibody, V domains shown) VH: QVQLVESGGGVVQPGRSLRLSCEASGFTFINYGMHWVRQAPGKGLEWVAVIWYDGSNKYYADSVKGRFTISRDNSKNTLYLQMNSLRAEDTAVYYCARDRSSSSDYWGQGTLVIVSS VL: SYELTQPSSVSVSPGQTARITCSGDVLAKKYARWFQQKPGQAPVLVIYKDSERPSGIPERFSGSSSGTTVTLTISGAQVEDEADYYCYSAADNNRVFGGGTKLTVL",binds
14,"EPOR/CD131 binder, HC SEQ ID NO 1637 / LC SEQ ID NO 1773 (antibody, V domains shown) VH: EVQLVESGGGLVQPGRSLRLSCAASGFTFDDYAMHWVRQAPGKGLEWVSGISWNSGSIGYADSVKGRFTISRDNAKNSLYLQMNSLRAEDTALYYCAKDSGYSPDYWGQGTLVTVSS VL: SYELTQPPSVSVSPGQTARITCSGDALPKKYAYWYQQKSGQAPVLVIYEDSKRPSGIPERFSGSSSGTMATLTISGAQVEDEADYYCYSTDSSGKGVFGGGTKLTVL",binds
15,"EPOR/CD131 binder, HC SEQ ID NO 1639 / LC SEQ ID NO 1775 (antibody, V domains shown) VH: QVQVVQSGAEVRKSGASVKVSCKASGYTFTSYYIHWVRQVPGQGLEWMGLINPSGGSTIYAQKFQGRVTMTRDTSTSSVYMELSSLRSEDTAAYYCARGGWGTMDVWGKGTTVTVSS VL: SSELTQDPAVSVALGQTVRITCQGDSLRSYYASWYQQKPGQAPVLVIYGKNNRPSGIPDRFSGSSSGNTASLTITGAQAEDEADYYCNSRDSSGNHYVFGTGTKVTVL",binds
16,"EPOR/CD131 binder, HC SEQ ID NO 1640 / LC SEQ ID NO 1776 (antibody, V domains shown) VH: EVQLVESGGGLVQPGGSLRLSCAASGFTFSSYDMHWVRQATGKGLEWVSAIGTAGDTYYPGSVKGRFTISRENAKNSLYLQMNSLRAGDTAVYYCARAWELDAFDIWGQGTMVTVSS VL: SSELTQDPAVSVALGQTVRITCQGDSLRSYYASWYQQKPGQAPVLVIYGKNNRPSGIPDRFSGSSSGNTASLTITGAQAEDEADYYCNSRDSSGNHVVFGGGTKLTVL",binds
17,"EPOR/CD131 binder, HC SEQ ID NO 1643 / LC SEQ ID NO 1779 (antibody, V domains shown) VH: EVQVMESGGGLVKPGGSLRLSCAASGFSFSSHSLNWVRQAPGKGLEWVSSISGISNYIAYADSVRGRFTISRDNAKNSLFLQMNSLRAEDTGVYYCARITVVSFDYWGQGTLVTVTS VL: QSALTQPASVSGSPGQSITISCTGTNNDVGYYNYVSWYQQHPDKAPKLMIYDVIKRPSGVSDRFSGSKSGNTASLTISGLQAEDEADYYCCSYAGSSTWVFGGGTKLSVL",binds
18,"EPOR/CD131 binder, HC SEQ ID NO 1645 / LC SEQ ID NO 1781 (antibody, V domains shown) VH: QVQLVQSGAEVKKPGASVKVSCKASGYTFTSYYIHWVRQAPGQGLEWMGIINPSGGTTNYAQKFQGRVTMTRDTSTSTVYMELSSLRSEDTAVYYCARGDWGTMDVWGKGTTVTVSS VL: QSALTQPASVSGSPGQSITISCTGTSSDVGNYNYVSWYQQHPGKVPKLMIYEVIYRPSGVSNRFSGSKSGNTASLTISGLQAEDEADYYCTSYTRNNTYVFGSGTKVTVL",binds
19,"EPOR/CD131 binder, HC SEQ ID NO 1646 / LC SEQ ID NO 1782 (antibody, V domains shown) VH: EVQLVESGGGLVQPGGSLRLSCAASGFTFSSYWMSWVRQAPGKGLEWVANIKQDGSEKYYVDSVKGRFTISRDNAKNSLYLQMNSLRAEDTAVYYCARDGTGWFDPWGQGTLVTVSS VL: QSVLTQPPSVSGAPGQRVTISCTGSSSNIGAGYDVHWYQQLPGTAPKLLIYGNSNRPSGVPDRFSGSKSGTSASLAITGLQAEDEADYYCQSYDSSLSGWVFGGGTKLTVL",binds
20,"EPOR/CD131 binder, HC SEQ ID NO 1647 / LC SEQ ID NO 1783 (antibody, V domains shown) VH: QVQLVQSGAEVKKPGASVKVSCKASGYTFTSYGISWVRQAPGQGLEWMGWISAYNGNTNYAQKLQGRVTMTTDTSTSTAYMELRSLRSDDTAVYYCARRGTVVFDYWGQGTLVTVSS VL: QSALTQPASVSGSPGQSITISCTGTSSDVGGYNYVSWYQQHPGKAPKLMIYDVSKRPSGVSNRFSGSKSGNTASLTISGLQAEDEADYYCCSYAGSSTYVVFGGGTKLTVL",binds
21,"EPOR/CD131 binder, HC SEQ ID NO 1648 / LC SEQ ID NO 1784 (antibody, V domains shown) VH: QVQLVQSGAEVKKPGASVKVSCKASGYTFTNYGISWVRQAPGQGLEWMGWISAYNGNTNYAQNLQGRVTMTTDTSTSTAYMELRSLRSDDTAVYYCARPLSGTLDNWGQGTLVTVSS VL: QSALTQPASVSGSPGQSITISCTGTSSDVGGYNYVSWYQQHPGKAPKLMIYDVSKRPSGVSNRFSGSKSGNTASLTISGLQAEDEADYYCCSYAGRSTLGIDWVFGGGTKLTVR",binds
22,"EPOR/CD131 binder, HC SEQ ID NO 1649 / LC SEQ ID NO 1785 (antibody, V domains shown) VH: EVQLVESGGGLVQPGGSLRLSCAASGFTFSSYSMNWVRQAPGKGLEWVSYISSSSSTIYYADSVKGRFTISRDNAKNSLYLQMNSPRDEDTAVYYCARESIAALFDYWGQGTLVTVSS VL: SSELTQDPAVSVALGQTVRITCQGDSLRSYYASWYQQKPGQAPVLVIYGKNNRPSGIPDRFSGSSSGNTASLTITGAQAEDEADYYCNSRDSSGNHLVFGGGTKLTVL",binds
